Source: the supplement of paper PMC11006884
Only a part is listed here, and it is no random draw.

By UniProt entry, the sequences of proteins in these tests, tags left out. Where a name states a change or a piece, a line headed by the entry shows the natural chain unless it says otherwise.
UniProt Q12888: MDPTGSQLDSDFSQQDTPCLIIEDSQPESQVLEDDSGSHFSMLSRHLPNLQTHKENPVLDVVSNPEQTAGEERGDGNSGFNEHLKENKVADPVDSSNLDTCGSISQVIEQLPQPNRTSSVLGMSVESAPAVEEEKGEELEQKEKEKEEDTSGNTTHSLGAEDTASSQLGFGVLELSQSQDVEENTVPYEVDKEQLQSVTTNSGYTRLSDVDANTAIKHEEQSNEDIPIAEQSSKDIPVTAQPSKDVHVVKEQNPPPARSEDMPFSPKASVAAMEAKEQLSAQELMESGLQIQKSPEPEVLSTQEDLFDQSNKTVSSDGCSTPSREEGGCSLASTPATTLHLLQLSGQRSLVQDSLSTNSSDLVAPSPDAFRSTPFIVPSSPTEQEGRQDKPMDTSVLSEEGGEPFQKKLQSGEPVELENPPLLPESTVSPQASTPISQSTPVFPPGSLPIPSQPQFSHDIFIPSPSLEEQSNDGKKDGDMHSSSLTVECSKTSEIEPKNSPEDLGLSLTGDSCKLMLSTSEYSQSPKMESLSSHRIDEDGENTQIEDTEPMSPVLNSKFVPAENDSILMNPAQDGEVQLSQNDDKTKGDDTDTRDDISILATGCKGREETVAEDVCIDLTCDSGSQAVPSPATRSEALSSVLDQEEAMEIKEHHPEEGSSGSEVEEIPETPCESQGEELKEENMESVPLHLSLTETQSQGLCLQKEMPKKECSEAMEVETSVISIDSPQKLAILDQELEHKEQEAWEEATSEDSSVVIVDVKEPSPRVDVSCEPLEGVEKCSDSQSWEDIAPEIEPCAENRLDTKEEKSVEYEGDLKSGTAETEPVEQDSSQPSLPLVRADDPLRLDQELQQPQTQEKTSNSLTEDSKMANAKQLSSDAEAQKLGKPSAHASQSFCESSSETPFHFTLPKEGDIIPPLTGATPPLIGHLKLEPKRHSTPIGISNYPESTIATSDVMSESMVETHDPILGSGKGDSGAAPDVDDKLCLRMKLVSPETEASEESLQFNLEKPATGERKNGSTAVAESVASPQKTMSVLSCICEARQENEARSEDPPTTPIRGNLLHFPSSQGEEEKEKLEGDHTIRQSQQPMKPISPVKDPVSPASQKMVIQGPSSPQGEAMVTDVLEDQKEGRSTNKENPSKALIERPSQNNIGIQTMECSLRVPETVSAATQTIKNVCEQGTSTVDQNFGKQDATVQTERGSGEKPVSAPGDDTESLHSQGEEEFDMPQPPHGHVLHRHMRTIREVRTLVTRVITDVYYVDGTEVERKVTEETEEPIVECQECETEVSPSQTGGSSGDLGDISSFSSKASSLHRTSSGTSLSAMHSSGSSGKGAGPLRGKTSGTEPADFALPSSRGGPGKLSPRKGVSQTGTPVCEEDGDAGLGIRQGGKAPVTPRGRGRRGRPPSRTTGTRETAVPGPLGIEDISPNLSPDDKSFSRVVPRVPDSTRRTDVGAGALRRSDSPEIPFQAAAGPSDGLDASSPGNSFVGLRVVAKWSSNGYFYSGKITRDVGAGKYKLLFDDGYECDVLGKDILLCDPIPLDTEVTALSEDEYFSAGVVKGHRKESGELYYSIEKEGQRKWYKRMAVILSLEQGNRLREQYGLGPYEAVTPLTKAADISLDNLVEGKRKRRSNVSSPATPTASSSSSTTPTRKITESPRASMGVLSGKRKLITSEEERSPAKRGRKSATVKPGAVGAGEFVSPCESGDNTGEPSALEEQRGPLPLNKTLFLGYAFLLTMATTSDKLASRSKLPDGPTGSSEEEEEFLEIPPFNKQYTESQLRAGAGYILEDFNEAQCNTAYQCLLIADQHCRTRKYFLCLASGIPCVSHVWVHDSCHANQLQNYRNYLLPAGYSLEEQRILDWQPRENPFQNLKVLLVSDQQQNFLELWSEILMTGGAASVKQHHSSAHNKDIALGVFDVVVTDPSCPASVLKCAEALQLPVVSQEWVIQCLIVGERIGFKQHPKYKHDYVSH
UniProt Q07157: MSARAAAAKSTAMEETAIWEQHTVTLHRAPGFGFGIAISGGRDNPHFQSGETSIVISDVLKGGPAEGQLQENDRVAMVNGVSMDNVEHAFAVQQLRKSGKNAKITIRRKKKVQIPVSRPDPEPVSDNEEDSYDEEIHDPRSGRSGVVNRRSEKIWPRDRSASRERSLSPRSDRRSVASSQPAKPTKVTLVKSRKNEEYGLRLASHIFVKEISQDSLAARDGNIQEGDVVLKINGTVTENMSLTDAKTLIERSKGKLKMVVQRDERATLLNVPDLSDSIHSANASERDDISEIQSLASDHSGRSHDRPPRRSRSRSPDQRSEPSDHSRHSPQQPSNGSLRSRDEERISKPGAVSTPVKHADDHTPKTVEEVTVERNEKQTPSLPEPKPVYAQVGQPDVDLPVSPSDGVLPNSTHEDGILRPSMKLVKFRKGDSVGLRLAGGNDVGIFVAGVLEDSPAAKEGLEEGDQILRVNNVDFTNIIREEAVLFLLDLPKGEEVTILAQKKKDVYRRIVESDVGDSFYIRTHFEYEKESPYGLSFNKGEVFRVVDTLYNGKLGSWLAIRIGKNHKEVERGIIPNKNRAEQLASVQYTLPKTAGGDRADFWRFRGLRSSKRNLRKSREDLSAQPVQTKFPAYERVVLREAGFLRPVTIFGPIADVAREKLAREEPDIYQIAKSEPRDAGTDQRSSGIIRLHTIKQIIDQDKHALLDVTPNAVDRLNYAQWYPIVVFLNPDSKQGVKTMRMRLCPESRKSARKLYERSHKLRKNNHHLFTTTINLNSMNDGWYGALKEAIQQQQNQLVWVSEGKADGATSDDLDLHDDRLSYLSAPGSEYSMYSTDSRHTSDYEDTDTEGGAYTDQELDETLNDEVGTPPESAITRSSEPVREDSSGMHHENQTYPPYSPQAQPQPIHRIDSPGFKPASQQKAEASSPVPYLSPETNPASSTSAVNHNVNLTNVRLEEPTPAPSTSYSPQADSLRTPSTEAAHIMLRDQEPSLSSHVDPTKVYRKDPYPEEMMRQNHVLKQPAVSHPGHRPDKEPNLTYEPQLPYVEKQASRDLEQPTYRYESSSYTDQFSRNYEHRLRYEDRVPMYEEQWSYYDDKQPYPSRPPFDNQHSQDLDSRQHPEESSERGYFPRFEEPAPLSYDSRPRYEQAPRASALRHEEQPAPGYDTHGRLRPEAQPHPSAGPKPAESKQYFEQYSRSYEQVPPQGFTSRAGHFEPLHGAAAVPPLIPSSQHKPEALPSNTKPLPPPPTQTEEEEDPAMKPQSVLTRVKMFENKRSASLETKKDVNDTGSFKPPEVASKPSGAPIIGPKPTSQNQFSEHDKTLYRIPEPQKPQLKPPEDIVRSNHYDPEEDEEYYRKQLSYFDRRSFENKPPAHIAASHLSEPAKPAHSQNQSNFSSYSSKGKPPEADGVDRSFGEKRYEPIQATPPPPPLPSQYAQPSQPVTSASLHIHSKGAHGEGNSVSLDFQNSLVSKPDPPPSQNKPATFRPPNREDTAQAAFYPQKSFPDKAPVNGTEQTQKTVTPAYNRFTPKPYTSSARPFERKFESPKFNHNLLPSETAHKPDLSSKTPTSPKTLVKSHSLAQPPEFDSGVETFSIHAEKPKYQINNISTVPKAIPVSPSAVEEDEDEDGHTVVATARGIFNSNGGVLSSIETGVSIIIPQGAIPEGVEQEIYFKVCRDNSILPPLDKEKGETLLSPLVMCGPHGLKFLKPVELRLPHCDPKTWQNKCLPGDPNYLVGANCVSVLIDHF
UniProt Q13370: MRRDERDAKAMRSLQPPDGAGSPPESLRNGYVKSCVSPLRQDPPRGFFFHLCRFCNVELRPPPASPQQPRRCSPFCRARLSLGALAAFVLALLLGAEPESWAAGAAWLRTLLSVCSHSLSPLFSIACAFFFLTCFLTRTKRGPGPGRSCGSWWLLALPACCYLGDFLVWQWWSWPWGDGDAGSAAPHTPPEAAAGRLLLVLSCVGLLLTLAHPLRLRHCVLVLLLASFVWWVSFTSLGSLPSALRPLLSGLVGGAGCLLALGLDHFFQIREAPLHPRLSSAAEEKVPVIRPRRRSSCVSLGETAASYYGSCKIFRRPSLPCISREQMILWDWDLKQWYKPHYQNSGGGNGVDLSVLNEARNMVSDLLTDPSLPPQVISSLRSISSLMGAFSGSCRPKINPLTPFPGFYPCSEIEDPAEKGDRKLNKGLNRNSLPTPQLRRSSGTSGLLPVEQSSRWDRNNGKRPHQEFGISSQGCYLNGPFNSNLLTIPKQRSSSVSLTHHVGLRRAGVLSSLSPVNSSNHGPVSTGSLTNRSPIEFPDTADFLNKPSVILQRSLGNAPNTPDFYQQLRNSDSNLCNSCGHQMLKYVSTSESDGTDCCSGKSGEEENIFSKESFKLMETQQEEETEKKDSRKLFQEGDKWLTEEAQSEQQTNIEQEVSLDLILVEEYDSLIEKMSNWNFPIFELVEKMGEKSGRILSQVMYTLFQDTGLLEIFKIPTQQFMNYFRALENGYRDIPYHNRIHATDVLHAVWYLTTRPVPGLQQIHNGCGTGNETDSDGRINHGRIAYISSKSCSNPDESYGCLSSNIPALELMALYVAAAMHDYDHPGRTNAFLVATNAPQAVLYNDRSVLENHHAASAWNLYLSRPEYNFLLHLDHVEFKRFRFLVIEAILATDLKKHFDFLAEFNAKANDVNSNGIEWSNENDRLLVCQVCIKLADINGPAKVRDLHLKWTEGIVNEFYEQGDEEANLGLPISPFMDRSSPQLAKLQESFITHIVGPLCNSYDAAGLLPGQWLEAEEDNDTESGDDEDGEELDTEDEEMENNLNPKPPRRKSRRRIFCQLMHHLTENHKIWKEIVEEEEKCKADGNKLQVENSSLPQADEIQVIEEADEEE
UniProt Q08211, whole entry, looked up: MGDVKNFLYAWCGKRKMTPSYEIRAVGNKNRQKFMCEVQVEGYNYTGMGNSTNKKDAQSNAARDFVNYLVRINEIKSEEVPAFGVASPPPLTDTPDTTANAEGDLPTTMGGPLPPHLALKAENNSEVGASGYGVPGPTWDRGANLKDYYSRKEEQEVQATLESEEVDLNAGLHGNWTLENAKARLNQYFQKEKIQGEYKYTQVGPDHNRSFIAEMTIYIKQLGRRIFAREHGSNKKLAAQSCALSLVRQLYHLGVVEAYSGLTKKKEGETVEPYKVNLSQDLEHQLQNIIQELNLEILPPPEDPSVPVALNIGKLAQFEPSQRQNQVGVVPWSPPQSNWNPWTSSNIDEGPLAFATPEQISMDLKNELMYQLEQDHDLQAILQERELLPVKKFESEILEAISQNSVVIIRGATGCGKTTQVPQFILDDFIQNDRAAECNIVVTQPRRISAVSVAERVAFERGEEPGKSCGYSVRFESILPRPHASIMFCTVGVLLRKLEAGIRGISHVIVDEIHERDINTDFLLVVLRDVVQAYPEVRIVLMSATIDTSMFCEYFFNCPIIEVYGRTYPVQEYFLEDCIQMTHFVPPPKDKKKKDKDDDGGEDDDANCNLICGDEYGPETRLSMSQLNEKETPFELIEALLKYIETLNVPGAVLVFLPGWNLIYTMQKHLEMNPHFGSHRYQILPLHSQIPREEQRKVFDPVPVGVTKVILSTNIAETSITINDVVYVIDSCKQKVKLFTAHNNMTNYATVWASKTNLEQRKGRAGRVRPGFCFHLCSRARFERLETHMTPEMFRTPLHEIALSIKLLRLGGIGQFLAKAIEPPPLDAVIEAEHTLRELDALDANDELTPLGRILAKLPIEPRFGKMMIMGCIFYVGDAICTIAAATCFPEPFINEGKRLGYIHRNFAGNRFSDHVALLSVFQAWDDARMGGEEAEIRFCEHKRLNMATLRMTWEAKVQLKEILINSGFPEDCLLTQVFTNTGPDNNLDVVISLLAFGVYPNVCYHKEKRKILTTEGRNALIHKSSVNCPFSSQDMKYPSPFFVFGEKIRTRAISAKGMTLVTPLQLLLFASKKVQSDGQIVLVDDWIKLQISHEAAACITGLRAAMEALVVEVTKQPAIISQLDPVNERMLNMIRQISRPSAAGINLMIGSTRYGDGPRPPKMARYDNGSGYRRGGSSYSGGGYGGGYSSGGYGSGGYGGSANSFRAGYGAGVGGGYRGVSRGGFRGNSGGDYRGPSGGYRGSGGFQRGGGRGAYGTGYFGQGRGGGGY
UniProt Q05639, whole entry, looked up: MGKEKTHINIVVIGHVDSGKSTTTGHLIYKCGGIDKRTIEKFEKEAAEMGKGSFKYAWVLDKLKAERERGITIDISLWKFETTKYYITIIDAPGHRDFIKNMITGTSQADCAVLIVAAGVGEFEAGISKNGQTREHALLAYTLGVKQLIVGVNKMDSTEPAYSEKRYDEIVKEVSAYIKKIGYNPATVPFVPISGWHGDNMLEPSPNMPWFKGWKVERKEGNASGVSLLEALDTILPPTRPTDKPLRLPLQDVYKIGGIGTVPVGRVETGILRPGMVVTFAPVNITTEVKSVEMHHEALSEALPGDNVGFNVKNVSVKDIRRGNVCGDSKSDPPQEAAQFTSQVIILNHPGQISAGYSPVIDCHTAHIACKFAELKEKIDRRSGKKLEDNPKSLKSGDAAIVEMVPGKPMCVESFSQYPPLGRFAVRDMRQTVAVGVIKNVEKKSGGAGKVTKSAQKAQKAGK

The targets below were run with COC(=O)C#Cc1ccccc1 [methyl 3-phenylpropiolate] (assay: log2 ratio of iodoacetamide-alkyne labeling of the cysteine site, DMSO over compound (competition); higher = stronger covalent engagement of the cysteine by the compound, active = 1 or more). Conditions: 500 µM; treatment time 1 h; system: HEK293T cell lysate.
Summary of the method: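 HEK293T lysate (2 mg/mL) was treated with DMSO or electrophile (500 µM, 1 h, ambient temperature), then iodoacetamide alkyne (1 h), clicked to sCIP-TMT reagents, pooled, trypsin-digested overnight at 37 °C, streptavidin-enriched and acid-eluted. Peptides were run on Orbitrap Eclipse LC-MS/MS with FAIMS and quantified in FragPipe. The log2 competition ratio per cysteine is mean control-channel over mean compound-channel reporter intensity. Duplicate channels and three replicates were used, and cysteines quantified in only one replicate were excluded.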

Target | log2 ratio of iodoacetamide-alkyne labeling
DLX2 C230 (UniProt Q07687) | inactive: 0.305
TLE3 C528 (UniProt Q04726) | active: 1.34
UniProt Q07955_C148 | inactive: 0.0351
NNT C936 (UniProt Q13423) | inactive: 0.364
EIF4G1 C1265 (UniProt Q04637) | inactive: 0.0211
NFX1 C295 (UniProt Q12986) | inactive: 0.68
EHHADH C559 (UniProt Q08426) | inactive: 0.111
TP53BP1 C1178 (UniProt Q12888) | inactive: 0.529
CEBPZ C374 (UniProt Q03701) | inactive: 0.281
UniProt Q12824_C167 | inactive: 0.143
GTF3C1 C1188 (UniProt Q12789) | inactive: 0.302
TJP1 C1740 (UniProt Q07157) | inactive: 0.525
PLOD1 C267 (UniProt Q02809) | inactive: 0.27
TRAF2 C124 (UniProt Q12933) | inactive: 0.26
UniProt Q08170_C115 | inactive: -0.0754
EXOSC9 C9 (UniProt Q06265) | inactive: 0.307
ILK C239 (UniProt Q13418) | inactive: 0.769
GTF3C1 C1981 (UniProt Q12789) | inactive: 0.746
NSUN2 C673 (UniProt Q08J23) | inactive: 0.0214

Target | log2 ratio of iodoacetamide-alkyne labeling
AP1B1 C123 (UniProt Q10567) | inactive: 0.316
PDE3B C767 (UniProt Q13370) | inactive: 0.175
CAMSAP2 C1416 (UniProt Q08AD1) | inactive: 0.764
DST C4370 (UniProt Q03001) | inactive: 0.151
MTA1 C229 (UniProt Q13330) | inactive: 0.124
DST C7524 (UniProt Q03001) | inactive: 0.174
GFPT1 C2 (UniProt Q06210) | inactive: -0.0189
CTBP1 C134 (UniProt Q13363) | inactive: -0.0572
TCOF1 C38 (UniProt Q13428) | inactive: 0.285
DHX9 C415 (UniProt Q08211) | inactive: 0.202
TP53BP1 C1375 (UniProt Q12888) | inactive: 0.327
FLII C1265 (UniProt Q13045) | inactive: 0.31
EEF1A2 C411 (UniProt Q05639) | inactive: 0.518
LGALS3BP C489 (UniProt Q08380) | active: 1.72
UniProt Q0D2I5_C349 | inactive: 0.944
MVK C275 (UniProt Q03426) | inactive: -0.134
NUP160 C1166 (UniProt Q12769) | inactive: 0.463
UniProt Q13131_C185 | inactive: 0.795
UniProt Q13155_C306 | inactive: 0.55

As a short view, some entries already given:
Target | log2 ratio of iodoacetamide-alkyne labeling
GFPT1 C2 (UniProt Q06210) | inactive: -0.0189
CTBP1 C134 (UniProt Q13363) | inactive: -0.0572
